How the values were obtained:
HCC827 [1] = assay: BrdU proliferation assay, 3D hanging drop cell culture; format: cell-based; conditions: Homo sapiens, HCC827, read-out: Proliferation Assay IC50 ± SD; HCC827 3D
Description: (§1) MTS assay gives us information about the number of living cells, in this case, metabolically active cells, whereas the BrdU proliferation assay gives a measure of the cell population in active division phase. Both assays were performed in 2D and 3D assay formats. For the 2D cell assay format, we used classic two-dimensional in vitro assays and as a 3D assay we used a hanging drop proliferation cell assay as previously described. We explored the activity of compounds on three human lung cancer cell lines, A549, HCC827 and NCI-H358. The compound activity was also tested on human lung fibroblast cell line MRC-5. A two-dimensional in vitro viability assay was performed on the MRC-5 cell line to see if tested compounds are cytotoxic on normal cell lines in low concentrations. […] 7.1.
(§2) Test compounds were synthesized by a research group at the Department of Organic Chemistry, Faculty of Chemical Engineering and Technology, University of Zagreb. […] Compounds were diluted 1:3. We transferred 500 nL (for 2D cell culture) or 400 nL (for 3D cell culture) of the compound from a mother plate to test plate by using Mosquito (TTP labtech). DMSO percentage in test concentrations was 0.5–1.0%. […]
Cells were grown in 96-well Perfecta 3D hanging drop plates 5000 cell/well for 4 days until spheres were formed (and checked under the microscope). […] Plates were read using PE EnVision luminescence. […]

HCC827 [2] = assay: Cytotoxicity (viability) assay, 3D hanging drop cell culture; conditions: Homo sapiens, HCC827, 72 h, read-out: Cytotoxicity Assay IC50 ± SD; HCC827 3D
Description: as §1
(§3) Test compounds were synthesized by a research group at the Department of Organic Chemistry, Faculty of Chemical Engineering and Technology, University of Zagreb. […] Compounds were diluted 1:3. We transferred 500 nL (for 2D cell culture) or 400 nL (for 3D cell culture) of the compound from a mother plate to test plate by using Mosquito (TTP labtech). DMSO percentage in test concentrations was 0.5–1.0%. Starting concentration of the test compounds and standard compound doxorubicin was 50 µM (2D cell culture) or 100 µM (3D cell culture).
(§4) Cells were grown in 96-well Perfecta 3D hanging drop plates 5000 cell/well for 4 days until spheres were formed (and checked under the microscope). After sphere formation cells were treated with compounds followed by 72 h incubation. Cell viability assay was performed according to the manufacturer’s instructions, using CellTiter GLO 3D for 3D cell culture (Promega); cell incubation was 5 min on the shaker followed by 25 min incubation in the dark. Plates were read using PE EnVision luminescence.
(§5) Calculation of IC50 data, curves and QC analysis was performed by using Excel tools and GraphPadPrism software (La Jolla, CA, USA), v. […] QC criteria parameters (Z’, S:B, R2, HillSlope) were checked for every IC50 curve.

A549 [3] = assay: as above; conditions: Homo sapiens, A549, 72 h, read-out: Cytotoxicity Assay IC50 ± SD; A549 3D
Description: as §1, §3, §4, §5

NCI-H358 [4] = assay: as above; conditions: Homo sapiens, NCI-H358, 72 h, read-out: Cytotoxicity Assay IC50 ± SD; NCI-H358 3D
Description: as §1, §3, §4, §5

A549 [5] = assay: MTS cytotoxicity assay, 2D cell culture; conditions: Homo sapiens, A549, 72 h, read-out: Cytotoxicity Assay IC50 ± SD; A549 2D
Description: as §1, §2
(§6) Cells were grown in 96-well cell star polystyrene plates. […] After 0.5–2 h of cell incubation with MTS in 2D cell culture, the plates were read using PE EnVision absorbance at 490 nm. […]

NCI-H358 [6] = assay: MTS cytotoxicity assay, 2D cell culture; conditions: Homo sapiens, NCI-H358, 72 h, read-out: Cytotoxicity Assay IC50 ± SD; NCI-H358 2D
Description: as §1, §2, §6

Q: `CN[C@@H]1C[C@H]2O[C@@](C)([C@@H]1OC)n1c3ccccc3c3c4c(c5c6ccccc6n2c5c31)C(=O)NC4` [Staurosporine, reference compound] was tested. Which IC50 (HCC827 [1]) did it give?
A: Its IC50 is 3 ± 2 nM.

Q: And the IC50 (HCC827 [2])?
A: The IC50 was 2 ± 0.1 nM.

Q: What about the IC50 (A549 [3]) of the same compound?
A: Its IC50 is 95 ± 10 nM.

Q: And the IC50 (NCI-H358 [4])?
A: The IC50 was 2 ± 1 nM.

Q: What about the IC50 (A549 [5]) of the same compound?
A: Its IC50 is 47 ± 7 nM.

Q: And the IC50 (NCI-H358 [6])?
A: Its IC50 is 41 ± 7 nM.
